Source: patent US20120014954A1 (ABRAXIS BIOSCIENCE, published 2012)
No constants are given. Whether binding was seen depends on the method and setting. Some entries that bind do so weakly or less than the wild type.

How the values were obtained:
[1] = target: T1, Secreted Protein, Acidic, Rich in Cysteines (SPARC) (UniProt P09486); test: Biacore (SPR), SPARC immobilised, scFv as flow through
T1 sequence (looked up): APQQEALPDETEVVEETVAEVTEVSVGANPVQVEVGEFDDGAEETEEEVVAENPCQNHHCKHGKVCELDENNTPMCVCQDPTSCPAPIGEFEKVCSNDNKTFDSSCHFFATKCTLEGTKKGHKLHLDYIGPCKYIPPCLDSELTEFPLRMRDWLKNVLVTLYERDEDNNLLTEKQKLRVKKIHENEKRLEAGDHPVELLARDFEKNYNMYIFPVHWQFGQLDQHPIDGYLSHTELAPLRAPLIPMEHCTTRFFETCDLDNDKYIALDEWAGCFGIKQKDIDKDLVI

[2] = target: T2, HTI SPARC (purified platelet SPARC obtained from HTI) (UniProt P09486); test: Biacore (SPR), SPARC immobilised; KD values only in FIG. 20B
T2 sequence (looked up): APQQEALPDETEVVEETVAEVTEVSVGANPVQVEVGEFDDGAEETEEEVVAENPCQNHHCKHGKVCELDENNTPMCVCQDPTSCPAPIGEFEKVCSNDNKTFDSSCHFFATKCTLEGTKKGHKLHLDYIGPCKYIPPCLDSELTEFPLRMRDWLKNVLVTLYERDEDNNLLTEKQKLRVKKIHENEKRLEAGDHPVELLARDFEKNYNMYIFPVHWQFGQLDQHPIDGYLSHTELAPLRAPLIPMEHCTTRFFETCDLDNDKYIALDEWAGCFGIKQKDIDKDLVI

[3] = target: T3, Abx SPARC (SPARC from engineered HEK293 cells produced by Abraxis) (UniProt P09486); test: as above
T3 sequence (looked up): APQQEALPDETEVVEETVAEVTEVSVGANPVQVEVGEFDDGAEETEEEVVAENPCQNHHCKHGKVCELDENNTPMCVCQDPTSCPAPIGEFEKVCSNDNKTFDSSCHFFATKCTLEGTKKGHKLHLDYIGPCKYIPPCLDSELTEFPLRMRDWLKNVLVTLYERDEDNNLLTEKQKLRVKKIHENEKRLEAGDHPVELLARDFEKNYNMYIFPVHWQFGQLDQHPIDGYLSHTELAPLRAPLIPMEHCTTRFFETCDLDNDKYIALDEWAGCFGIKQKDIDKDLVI

[4] = target: T1, Secreted Protein, Acidic, Rich in Cysteines (SPARC); test: scFv phage display screening, ELISA
[5] = target: T1, Secreted Protein, Acidic, Rich in Cysteines (SPARC); test: phage ELISA and soluble scFv ELISA with SPARC as antigen
[6] = target: T1, Secreted Protein, Acidic, Rich in Cysteines (SPARC); test: Biacore, SPARC immobilised on the chip, scFv in the flow; which SPARC preparation is not said
[7] = target: T1, Secreted Protein, Acidic, Rich in Cysteines (SPARC); test: concentration-dependent ELISA on SPARC
[8] = target: T1, Secreted Protein, Acidic, Rich in Cysteines (SPARC); test: ELISA and IHC
[9] = target: T1, Secreted Protein, Acidic, Rich in Cysteines (SPARC); test: concentration-dependent binding ELISA (FIG. 9)

Measured: binding

B1: ScFv 2-1 (scFv)
scFv: EVQLLESGGGLVQPGGSLRLSCAASGFTFSSYAMSWVRQAPGKGLEWVSMITPLGSTTAYADSVKGRFTISRDNSKNTLYLQMNSLRAEDTAVYYCAKRAGVFDYWGQGTLVTVSSGGGGSGGGGSGGGGSTDIQMTQSPSSLSASVGDRVTITCRASQSISSYLNWYQQKPGKAPKLLIYRASTLQSGVPSRFSGSGSGTDFTLTISSLQPEDFATYYCQQNDSFPTTFGQGTKVEIKR
notes: It was purified from bacteria on a nickel column
not listed: [7] | [8] | [9]
binds: all other assays above

B2: PD 21 (peptide)
peptide: VTPLLKFRALSS
notes: 12-mer from the Ph.D.-12 phage library; The peptide was cloned into pFUSE-hIgG1-Fc2 and expressed as the PD 21-Fc fusion; also called peptide 21; PD 21-Fc
binds: [7] | [8] | [9]

B3: ScFv 2-2 (scFv)
scFv: EVQLLESGGGLVQPGGSLRLSCAASGFTFSSYAMSWVRQAPGKGLEWVSHIQGQGRATYYADSVKGRFTISRDNSKNTLYLQMNSLRAEDTAVYYCAKTHGKFDYWGQGTLVTVSSGGGGSGGGGSGGGGSTDIQMTQSPSSLSASVGDRVTITCRASQSISSYLNWYQQKPGKAPKLLIYRASRLQSGVPSRFSGSGSGTDFTLTISSLQPEDFATYYCQQPSGVPTTFGQGTKVEIK
binds: [4] | [5]

B4: PD 15 (peptide)
peptide: YTRLHHWIPPQR
notes: 12-mer from the Ph.D.-12 phage library; The peptide was cloned into pFUSE-hIgG1-Fc2 and expressed as the PD 15-Fc fusion; also called peptide 15; PD 15-Fc
binds: [7] | [8] | [9]
